These results are taken from PMC7588057.

The chains behind the UniProt entries cited, without tags or fusion partners. Where a name states a change or a piece, a line headed by the entry shows the natural chain unless it says otherwise.
UniProt Q0PF16: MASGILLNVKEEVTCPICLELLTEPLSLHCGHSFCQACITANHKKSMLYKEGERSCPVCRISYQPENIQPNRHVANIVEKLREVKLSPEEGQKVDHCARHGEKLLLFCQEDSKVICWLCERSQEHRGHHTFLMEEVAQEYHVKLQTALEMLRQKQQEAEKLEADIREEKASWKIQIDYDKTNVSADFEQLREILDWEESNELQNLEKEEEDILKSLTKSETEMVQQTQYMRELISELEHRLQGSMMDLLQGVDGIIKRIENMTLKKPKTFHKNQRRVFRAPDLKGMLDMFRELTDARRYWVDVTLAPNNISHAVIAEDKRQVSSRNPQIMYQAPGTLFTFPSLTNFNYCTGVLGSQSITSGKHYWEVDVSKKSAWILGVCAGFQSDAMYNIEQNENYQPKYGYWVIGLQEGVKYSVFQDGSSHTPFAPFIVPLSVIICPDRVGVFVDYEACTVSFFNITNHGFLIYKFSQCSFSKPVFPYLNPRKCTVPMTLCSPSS
UniProt Q14457: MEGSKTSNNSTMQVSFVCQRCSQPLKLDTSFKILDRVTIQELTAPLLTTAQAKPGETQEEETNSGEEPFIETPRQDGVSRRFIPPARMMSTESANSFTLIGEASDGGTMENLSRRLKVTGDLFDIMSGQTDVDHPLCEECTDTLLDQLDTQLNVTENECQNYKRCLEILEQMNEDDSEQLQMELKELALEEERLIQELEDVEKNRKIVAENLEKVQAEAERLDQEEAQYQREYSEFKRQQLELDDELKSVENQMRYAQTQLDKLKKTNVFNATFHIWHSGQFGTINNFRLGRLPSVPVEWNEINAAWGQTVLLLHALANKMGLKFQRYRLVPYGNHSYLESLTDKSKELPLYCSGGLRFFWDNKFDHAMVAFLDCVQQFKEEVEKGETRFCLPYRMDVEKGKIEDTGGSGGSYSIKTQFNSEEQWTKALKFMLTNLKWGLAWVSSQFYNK

In assay [1] the target is GFP-TRIM5 ΔLIR1/2 mutant (F187A, L190A, W196A, E197A) (UniProt Q0PF16). Kind of assay: co-IP; lysates of transiently transfected HEK293T cells, IP lysis buffer with 1% NP-40; immunoprecipitation with anti-GFP (for the TRIM5-TAK1 pair also with anti-FLAG), immunoblot; TRIM5-TAK1 also in ULK1, BECN1 and ATG7 knockout HEK293T cells.
Assay [2] deals with GFP-TRIM5 (tripartite motif-containing protein 5, isoform α), wild type (UniProt Q0PF16). Described as above.

These are yes or no findings as the source states them, for the method shown. In cells and extracts the contact can be indirect. Some entries that bind do so weakly or less than the wild type.

Regarding FLAG-BECN1 (from UniProt Q14457 1-450), the binding entry in assay [1] and in assay [2] was “binds” each time.
